Test results: publication PMC4824076, “Integrated microfluidic approach for quantitative high-throughput measurements of transcription factor binding affinities”
For some assays here: Tags and fusion partners may be left off the protein sequences shown. For some assays here: The exact form of at least one protein or probe is not confirmed. For some assays here: No signal at the amounts used counts as a negative.

Chains of the proteins cited; added tags and fusions are not shown. Chains listed by the source or under a name are the forms on record and can include a tag or linker.
c-Fos/c-Jun (Homo sapiens), one chain, as listed by the source, chain 1 of 2: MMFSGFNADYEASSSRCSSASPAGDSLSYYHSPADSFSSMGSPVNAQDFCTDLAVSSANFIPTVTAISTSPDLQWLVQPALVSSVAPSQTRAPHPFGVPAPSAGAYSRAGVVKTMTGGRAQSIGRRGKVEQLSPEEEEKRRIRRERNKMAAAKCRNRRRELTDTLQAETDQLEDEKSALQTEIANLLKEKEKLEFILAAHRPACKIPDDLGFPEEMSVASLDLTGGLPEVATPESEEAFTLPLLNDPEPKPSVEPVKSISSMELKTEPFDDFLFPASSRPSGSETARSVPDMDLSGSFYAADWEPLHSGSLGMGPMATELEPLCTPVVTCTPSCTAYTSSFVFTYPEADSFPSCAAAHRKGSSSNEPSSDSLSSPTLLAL
c-Fos/c-Jun (Homo sapiens), one chain, as listed by the source, chain 2 of 2: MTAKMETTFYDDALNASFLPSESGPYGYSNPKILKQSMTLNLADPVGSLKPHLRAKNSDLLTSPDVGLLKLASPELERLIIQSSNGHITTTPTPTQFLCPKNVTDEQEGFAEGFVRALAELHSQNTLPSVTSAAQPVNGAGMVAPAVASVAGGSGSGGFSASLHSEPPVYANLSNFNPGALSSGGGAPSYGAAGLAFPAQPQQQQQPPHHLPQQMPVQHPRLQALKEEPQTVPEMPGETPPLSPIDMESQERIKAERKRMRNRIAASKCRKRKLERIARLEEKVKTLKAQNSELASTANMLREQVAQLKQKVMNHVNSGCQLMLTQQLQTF

Assays:
c-Jun = assay: MITOMI (QPID); conditions: QPID microfluidic MITOMI; 1 h incubation of in vitro expressed extract (about 25 ul, 50 ng protein) with spotted Cy5-dsDNA; protein translated in vitro; label: Cy5
c-Fos = assay: MITOMI (QPID); conditions: QPID microfluidic MITOMI; 1 h incubation of in vitro expressed extract (about 25 ul, 50 ng protein) with spotted Cy5-dsDNA; protein translated in vitro; label: Cy5
ATF3 (Homo sapiens) = target: T1, ATF3 (Homo sapiens) (UniProt P18847); assay: binding assay; conditions: MITOMI-type chip (QPID); rabbit reticulocyte lysate, 1 h; wash 50 mM HEPES; temperature not stated; DNA spotted at 0.0156-2 uM; protein translated in vitro; protein details: N-cMyc, C-His6 (kept); label: Cy5 on the primer strand
T1 sequence (looked up, limits assumed): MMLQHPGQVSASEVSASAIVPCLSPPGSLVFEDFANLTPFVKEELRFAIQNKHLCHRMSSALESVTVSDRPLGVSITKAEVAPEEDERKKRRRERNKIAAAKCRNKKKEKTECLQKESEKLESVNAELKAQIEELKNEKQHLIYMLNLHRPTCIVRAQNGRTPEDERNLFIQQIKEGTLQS

ATF1 (Homo sapiens) = target: T2, ATF1 (Homo sapiens) (UniProt P18846); assay: binding assay; conditions: MITOMI-type chip (QPID); rabbit reticulocyte lysate, 1 h; wash 50 mM HEPES; temperature not stated; DNA spotted at 0.0156-2 uM; protein translated in vitro; protein details: N-cMyc, C-His6 (kept); label: Cy5 on the primer strand
T2 sequence (looked up, limits assumed): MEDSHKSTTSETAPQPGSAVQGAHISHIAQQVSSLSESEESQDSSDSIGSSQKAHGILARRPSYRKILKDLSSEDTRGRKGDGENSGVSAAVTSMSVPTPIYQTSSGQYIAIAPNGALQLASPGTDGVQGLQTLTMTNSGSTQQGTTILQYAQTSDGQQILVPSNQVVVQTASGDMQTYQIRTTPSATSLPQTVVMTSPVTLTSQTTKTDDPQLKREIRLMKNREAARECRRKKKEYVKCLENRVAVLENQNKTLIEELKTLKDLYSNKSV

[1] = system: c-Fos/c-Jun (Homo sapiens); assay: binding assay; conditions: MITOMI-type chip (QPID); rabbit reticulocyte lysate, 1 h; wash 50 mM HEPES; temperature not stated; DNA spotted at 0.0156-2 uM; protein translated in vitro; label: Cy5 on the primer strand; variant of oligo 1 (CRE)
c-Jun (Homo sapiens) = assay: binding assay; conditions: MITOMI-type chip (QPID), rabbit reticulocyte lysate, 1 h, wash 50 mM HEPES, temperature not stated, DNA spotted at 0.0156-2 uM, protein translated in vitro, protein details: N-cMyc, C-His6 (kept), label: Cy5 on the primer strand
c-Jun + c-Fos = assay: MITOMI (QPID); conditions: QPID microfluidic MITOMI; 1 h incubation of in vitro expressed extract (about 25 ul, 50 ng protein) with spotted Cy5-dsDNA; protein translated in vitro; label: Cy5

Sequence | binding result (c-Fos) | Kd (ATF3 (Homo sapiens)) [nM] | Kd (ATF1 (Homo sapiens)) [nM] | also measured
GGCCACTACCGCTTCCTCCACATGGCGTCATGGTTTTCTCCACCAAGGAAGT (double strand) [oligo 5 (CRE half-site)] | no binding | – | – | binding result (c-Jun): no binding
TTATGACCTGGGAGTGACGTCATGGAATCCACAGA (double strand) [oligo 2 (CRE)] | no binding | – | – | –
GGCCACTACCGCTTCCTCCACATGACGTCATGGTTTTCTCCACCAAGGAAGT (double strand) [oligo 1 (CRE)] | no binding | – | – | –
CGCTGGGCGCCTTTTCCGCGTCACTCCGTAACCGGAAGCTCCGGCGGTATGAC (double strand) [50.ATF1_CRE_hs_2] | – | > 2000 | 295 | –
CGCCCGTCGCTCTCAATTCGTCACCAGGAGGAAGACGGCTCCGGCGGTATGAC (double strand) [42.ATF3_CRE_hs_28] | – | > 2000 | 301 | –
CGCGCGCTGGCGCGCTGTCGTCACGATTACGCGGCCAGCTCCGGCGGTATGAC (double strand) [61.ATF1_CRE_hs_13] | – | > 2000 | 144 | –
GGCCACTACCGCTTCCTCCACAAATAAAATTGGTTTTCTCCACCAAGGAAGT (double strand) [oligo 7 (Mutant)] | – | – | – | Kd [1]: > 2000 nM; Kd (c-Jun (Homo sapiens); variant of oligo 1 (CRE)): > 2000 nM
TTATCCACTTGCGCTCGCCGAGTGGCGTCACCAGCGGTACTGTAATGACGAT (double strand) [oligo 6 (CRE half-site)] | no binding | – | – | binding result (c-Jun): no binding
CGCATCCGCCACCGGAGACGTCACAGCTAAAGCCACGCCTCCGGCGGTATGAC (double strand) [53.ATF1_CRE_hs_5] | – | > 2000 | 355 | –
TTATGACCTGGGAGTGAGTCAATGGAATCCACAGA (double strand) [oligo 4 (AP-1)] | no binding | – | – | Kd (c-Jun (Homo sapiens); variant of oligo 2 (CRE)): > 2000 nM; binding result (c-Jun): no binding
CGCGCCAGACCGGAGGTGCGTCATTCACCGGCGACGCCCTCCGGCGGTATGAC (double strand) [98.ATF1_ATF3_CRE_hs_16] | – | > 2000 | 921 | –
CGCCAGACTTTTCGAGACCGTCAATTGGTCGTAGTCCCCTCCGGCGGTATGAC (double strand) [51.ATF1_CRE_hs_3] | – | > 2000 | > 2000 | –
TTATCCACTTGCGCTCGCCGAGTGGCGTCACCAGCGGTACTGTAATGACGAT (double strand) [oligo 6 (HS)] | – | – | – | Kd (c-Jun (Homo sapiens)): > 2000 nM
CGCGGCGCGCGGCTGTGTCGTCATACTTGCGCGCCGACCTCCGGCGGTATGAC (double strand) [67.ATF1_CRE_hs_19] | – | > 2000 | 163 | –
GGCCACTACCGCTTCCTCCACATGAGTCATGGTTTTCTCCACCAAGGAAGT (double strand) [oligo 3 (AP-1)] | no binding | – | – | –
GGCCACTACCGCTTCCTCCACAAATAAAATTGGTTTTCTCCACCAAGGAAGT (double strand) [oligo 7 (mutant)] | no binding | – | – | binding result (c-Jun): no binding; binding result (c-Jun + c-Fos): no binding
CGCTTCTCCCCTACCCGCCCCAGCGTGCCGGGGAATGCCTCCGGCGGTATGAC (double strand) [122.Unbound_non_CRE_1] | – | > 2000 | > 2000 | –
GGCCACTACCGCTTCCTCCACATGGCGTCATGGTTTTCTCCACCAAGGAAGT (double strand) [oligo 5 (HS)] | – | – | – | Kd (c-Jun (Homo sapiens); variant of oligo 1 (CRE)): > 2000 nM
CGCCATCACGTGGGCCAGCGTCACATGGGCCAGCATCACTCCGGCGGTATGAC (double strand) [40.ATF3_CRE_hs_26] | – | > 2000 | 756 | –
